From PMC12210985

What was measured:
[1] = molecular target: T1, MBP-Crp-His6 (Shewanella oneidensis MR-1) (UniProt Q8EJ49); assay: MST; conditions: cAMP, MST: 1x PBS pH 7.4, 0.05% Tween-20, 25 C, recombinant protein, protein details: N-terminal MBP, C-terminal 6xHis, label: 5'-biotin on forward strand (EMSA), probe letters rebuilt from the primers and the genome
T1 sequence: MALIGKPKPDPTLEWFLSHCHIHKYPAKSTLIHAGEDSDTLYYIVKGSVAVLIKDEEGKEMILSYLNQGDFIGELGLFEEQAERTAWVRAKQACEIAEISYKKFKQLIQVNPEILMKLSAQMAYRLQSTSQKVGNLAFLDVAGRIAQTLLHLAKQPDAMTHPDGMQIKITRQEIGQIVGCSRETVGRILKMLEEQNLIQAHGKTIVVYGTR

[2] = molecular target: T2, ArcA-P (Shewanella oneidensis MR-1) (UniProt Q8EAB9); assay: MST; conditions: phosphorylated ArcA, MST: 1x PBS pH 7.4, 0.05% Tween-20, 25 C, recombinant protein, protein details: C-terminal 6xHis (pET22b), label: 5'-biotin on forward strand (EMSA), probe letters rebuilt from the primers and the genome
T2 sequence (looked up, limits assumed): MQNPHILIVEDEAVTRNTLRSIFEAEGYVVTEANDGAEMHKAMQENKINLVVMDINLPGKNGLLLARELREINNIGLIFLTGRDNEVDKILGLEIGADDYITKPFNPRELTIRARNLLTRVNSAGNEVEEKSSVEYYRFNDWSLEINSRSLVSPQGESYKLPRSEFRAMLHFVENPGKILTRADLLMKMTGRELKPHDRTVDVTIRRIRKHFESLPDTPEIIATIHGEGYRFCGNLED

[3] = molecular target: T3, MBP-Crp (Shewanella oneidensis MR-1) (UniProt Q8EJ49); assay: EMSA; conditions: 10 uM cAMP, 0.18 and 0.36 uM protein; EMSA: 2 mM EDTA, 20 mM KCl, 0.5 mM DTT, 4% Ficoll-400, pH 8.0, 2 ug poly(dI-dC), 10 nM probe, 10 uM cAMP for Crp; recombinant protein; protein details: N-terminal MBP (pMAL-c4x); label: 5'-biotin on forward strand (EMSA); probe letters rebuilt from the primers and the genome
T3 sequence: T1 sequence

[4] = molecular target: T2, ArcA-P (Shewanella oneidensis MR-1); assay: EMSA; conditions: EMSA: 2 mM EDTA, 20 mM KCl, 0.5 mM DTT, 4% Ficoll-400, pH 8.0, 2 ug poly(dI-dC), 10 nM probe, 10 uM cAMP for Crp, recombinant protein, protein details: C-terminal 6xHis (pET22b), label: 5'-biotin on forward strand (EMSA), probe letters rebuilt from the primers and the genome
[5] = ArcA-P 0-3.4 uM, competed by 50x unlabelled probe

Row | Sequence | Kd [1] [nM] | Kd [2] [nM] | binding result [3] | binding result [4, 5] | binding result ([1]; Kd shown only in figure) | binding result ([2]; Kd shown only in figure) | binding result ([4]; phosphorylated ArcA)
1 | ATCCACAAGCACTACGTTTTGAAGGAAAGACAATGCGCCGCGTTCCTGCTAAATACGTGGGTTTTAAACAAAACCTACTGCATTGAGCTAGCGCAGATTTATCACAGAAATGCGATCGCAATCACGCTGGTCGCGCGCATTCTACCCCAATTGCCGTGCCATCGCCACGAAAATTATAGGTGTTTTCAAACCTAAAATAAGGATTTACAAGAATCATGCGCTACAGCGTTCACCTTCCGACCGAACAAGGGTTCAGAAAGAGAGAGTATTACGGTCGTCAAATACTATAACATTAATTTTTAAAGAATTAATTTAGCGAAAGGTCGATAACCTGTGATATCTAGAAATCTAAATGCTTTTTCGCTTTATTCCTAATAACTTTAAACAAGATTTAACTCAGT (double strand) [nqr1 promoter probe (PnqrA1)] | 120 | 560 | binds | binds |  |  | 
2 | CATCACAAATATCAACCATGAAAATTTTTAGATAAATTTAGGGTAGATGTTTGTTAACAGATAATCCGATAGTGGCGTCACATTCCGCTGTAATTCCGTAAGTAATATACATAAAAAAGCACTATTTTGTGACACGAATCTACATGAAGTCAGGGCAAGAACTCTAAATGTAGTTTTATAACAAATAACTCATAATTACGTCATAACTGATTTAGAGTTAACTTAACTATATAAAAATAGACAAAAATCCCCCTCTTCGGCCTCGAATCGACGCAAAGGTGTAAAAACCAATGTCTGCGGCGATTCCATGCACAATATGTGGCAATAAACCAAGTAAAACCTATGCAAGGCATTGGTTATTTTTAACCCAGTAACATACTTAGCGCCGCATTAACCTTTGCTTTACAGCAAAAGCTTGATAGCCTCGAACTAAGATAGTTTCCGTAGGAGAAATAGA (double strand) [nqr2 promoter probe (PnqrA2)] | 2020 | 680 | binds | binds |  |  | 
3 | TGGCGAACAGTTAAGACAGATCGCTTGGCGATCTCGCTGAAAAGTCTCATTTCCACTGATGGCACCACGCTTATCGAGGCGGCTGCGTATCCCTGCCTGATGTTGACGATAAGCAACCATCGGCCCATCCCTGTATCACAAATAACAAAAAAATGCGAACTTAATCACGTGTCACCTATGAACAATTAGCACCTATAAATGACTTGTAAATCAGTGCAAAAATGTAATAATCGCCAAGATTATTGTTAATCCACTTAGTCTGTTTTGTTGTAGATTACTTCTCATTACATCAATGTGGTTGAAAATCGCACAAACGATTTAGCATTAGTGATTATGTGGTTGCCAATGTATTGCTTAACAAAAAATTTTCAAAGAGCAACCGCTTCTAGGAAAAACCATC (double strand) [nuo promoter probe (PnuoA)] |  |  | binds |  | binds | binds | binds

The exact form of at least one protein or probe is not confirmed. For part of these data: Protein sequences can lack the tags named with them.
